Data taken from US20100056516A1 (priority 2006, published 2010).
pIC50: −log10 of the molar value. Some of these results come from one statement about several compounds together.

Each compound was assayed against HIV-1 reverse transcriptase (RNase H) (Human immunodeficiency virus type 1 group M subtype B, UniProt P04585) (assay: ASH assay: RNase H mediated RNA cleavage (ECL format, BioVeris M384)). Conditions: 5'-ruthenium oligo, BioVeris M384 analyzer.
Assay type: biochemical

SMILES | pIC50
CN(C(=O)c1c(O)c2cccnc2n(O)c1=O)C1CCNC1 (stereo not drawn) [Example 215, 1,4-Dihydroxy-N-methyl-2-oxo-N-pyrrolidin-3-yl-1,2-dihydro-1,8-naphthyridine-3-carboxamide] | > 4.00
O=c1cc(-c2cncnc2)c2cccnc2n1O [Example 197, 1-hydroxy-4-pyrimidin-5-yl-1,8-naphthyridin-2(1H)-one] | > 4.00
CCOC(=O)c1c(Nc2ccccc2)c2cccnc2n(O)c1=O [Example 127, Ethyl 4-anilino-1-hydroxy-2-oxo-1,2-dihydro-1,8-naphthyridine-3-carboxylate] | > 4.00
N#Cc1ccc(-c2c(O)c3cccnc3n(O)c2=O)cc1 [Example 45, 4-(1,4-dihydroxy-2-oxo-1,2-dihydro-1,8-naphthyridin-3-yl)benzonitrile] | > 4.00
O=c1cc(NCc2cccc(N3CCOCC3)n2)c2cccnc2n1O [Example 115, 1-hydroxy-4-{[(6-morpholin-4-ylpyridin-2-yl)methyl]amino}-1,8-naphthyridin-2(1H)-one] | > 4.00
CCOC(=O)c1c(O)c2cc(C(=O)N3CCCCC3CCc3ccccc3)cnc2n(O)c1=O (stereo not drawn) [Example 82, Ethyl 1,4-dihydroxy-2-oxo-6-{[2-(2-phenylethyl)piperidin-1-yl]carbonyl}-1,2-dihydro-1,8-naphthyridine-3-carboxylate] | > 4.00
O=c1cc(-c2ccn[nH]2)c2cccnc2n1O [Example 198, 1-hydroxy-4-(1H-pyrazol-5-yl)-1,8-naphthyridin-2(1H)-one] | > 4.00
COC(=O)c1ccc2c(c1)CN(c1cc(=O)n(O)c3ncccc13)CC2 [Example 122, 4-[7-(methoxycarbonyl)-3,4-dihydroisoquinolin-2(1H)-yl]-1-hydroxy-1,8-naphthyridin-2(1H)-one] | > 4.00
O=c1c(-c2ccccn2)c(O)c2cccnc2n1O [Example 27, 1,4-Dihydroxy-3-pyridin-2-yl-1,8-naphthyridin-2(1B)-one] | > 4.00
CCOC(=O)CN1CCN(c2cc(=O)n(O)c3ncccc23)CC1 [Example 164, ethyl[4-(1-hydroxy-2-oxo-1,2-dihydro-1,8-naphthyridin-4-yl)-1-piperazinyl]acetate] | > 4.00
CS(=O)(=O)NCc1ccc(-c2cc(=O)n(O)c3ncccc23)cc1 [Example 189, N-[4-(1-hydroxy-2-oxo-1,2-dihydro-1,8-naphthyridin-4-yl)benzyl]methanesulfo-namide] | > 4.00
COc1cccc(CNc2cc(=O)n(O)c3ncccc23)c1 [Example 145, 1-hydroxy-4-[(3-methoxybenzyl)amino]-1,8-naphthyridin-2(1H-one)] | > 4.00
O=c1c(-c2ccccc2)c(O)c2cc(S(=O)(=O)NCc3ccccc3)cnc2n1O [Example 96, N-benzyl-5,8-dihydroxy-7-oxo-6-phenyl-7,8-dihydro-1,8-naphthyridine-3-sulfonamide] | > 4.00
CN(C)C(=O)c1c(O)c2cccnc2n(O)c1=O [Example 5, 1,4-Dihydroxy-N,N-dimethyl-2-oxo-1,2-dihydro-1,8-naphthyridine-3-carboxamide] | > 4.00
Cc1ccc(CNc2cc(=O)n(O)c3ncccc23)cc1 [Example 143, 1-hydroxy-4-[(4-methylbenzyl)amino]-1,8-naphthyridin-2(1H-one)] | > 4.00
O=c1cc(NCc2cccc(CN3CCOCC3)c2)c2cccnc2n1O [Example 151, 1-hydroxy-4-{[3-(4-morpholinylmethyl)benzyl]amino}-1,8-naphthyridin-2(1H-one)] | > 4.00
O=c1c2ccc(-c3ccccc3)cc2c2cccnc2n1O [Example 267, 5-Hydroxy-9-phenylbenzo[c]-1,8-naphthyridin-6(5.H)-one] | > 4.00
O=c1c(Br)c(O)c2cc(-c3ccncc3)cnc2n1O [Example 72, 3-Bromo-1,4-dihydroxy-6-pyridin-4-yl-1,8-naphthyridin-2(1H)-one] | > 4.00
O=C(NCc1ccccc1)c1ccc2c(c1)CCN(c1cc(=O)n(O)c3ncccc13)C2 [Example 261, 4-[6-(benzylaminocarbonyl)-3,4-dihydroisoquinolin-2(1H)-yl]-1-hydroxy-1,8-naphthyridin-2(1H)-one] | > 4.00
O=c1cc(-c2ccc3ccccc3c2)c2cccnc2n1O [Example 173, 1-hydroxy-4-(2-naphthyl)-1,8-naphthyridin-2(1H)-one] | > 4.00
N#Cc1cccc(-c2cccc(-c3cc(=O)n(O)c4ncccc34)c2)c1 [Example 202, 3′-(1-hydroxy-2-oxo-1,2-dihydro-1,8-naphthyridin-4-yl)biphenyl-3-carbonitrile] | > 4.00
CCOC(=O)N1CCC(Nc2cc(=O)n(O)c3ncccc23)CC1 [Example 109, Ethyl 4-[(1-hydroxy-2-oxo-1,2-dihydro-1,8-naphthyridin-4-yl)amino]piperidine-1-carboxylate] | > 4.00
CCOC(=O)Cc1c(O)c2cccnc2n(O)c1=O [Example 223, Ethyl (1,4-dihydroxy-2-oxo-1,2-dihydro-1,8-naphthyridin-3-yl)acetate] | > 4.00
COc1ccccc1CNc1cc(=O)n(O)c2ncccc12 [Example 142, 1-hydroxy-4-[(2-methoxybenzyl)amino]-1,8-naphthyridin-2(1H-one)] | > 4.00

SMILES | pIC50
CCOC(=O)c1c(O)c2cc(C(=O)NC3CCCCC3)cnc2n(O)c1=O [Example 86, ethyl-6-[(cyclohexylamino)carbonyl]-1,4-dihydroxy-2-oxo-1,2-dihydro-1,8-naphthyridine-3-carboxylate] | > 4.00
O=c1cc(Nc2ccccc2N2CCOCC2)c2cccnc2n1O [Example 147, 1-hydroxy-4-{[2-(4-morpholinyl)phenyl]amino}-1,8-naphthyridin-2(1H-one)] | > 4.00
O=c1c(-c2ccccc2O)c(O)c2cccnc2n1O [Example 46, 1,4-dihydroxy-3-(2-hydroxyphenyl)-1,8-naphthyridin-2(1H)-one] | > 4.00
O=c1cc(-c2cn[nH]c2)c2cccnc2n1O [Example 244, 1-Hydroxy-4-(pyrazol-4-yl)-1,8-naphthyridin-2-(1H)-one] | > 4.00
CC(=O)Nc1cccc(-c2cc(=O)n(O)c3ncccc23)c1 [Example 194, N-[3-(1-hydroxy-2-oxo-1,2-dihydro-1,8-naphthyridin-4-yl)phenyl]acetamide] | > 4.00
O=c1c(-c2ccccc2)c(O)c2cc(-c3cccs3)cnc2n1O [Example 75, 6-(thien-2-yl)-1,4-dihydroxy-3-phenyl-1,8-napthyridin-2(1H)-one] | > 4.00
CN1C(=O)c2c(c3cccnc3n(O)c2=O)NC1c1ccccc1-c1ccccc1 (stereo not drawn) [Example 217, 2-Biphenyl-2-yl-6-hydroxy-3-methyl-2,3-dihydropyrimido[5,4-c]-1,8-naphthyridine-4,5(1H, 6H)dione] | > 4.00
CCOC(=O)c1c(O)c2cc(-c3cc(C)cc(C)c3)cnc2n(O)c1=O [Example 65, Ethyl 6-(3,5-dimethylphenyl)-1,4-dihydroxy-2-oxo-1,2-dihydro-1,8-napthyridine-3-carboxylate] | > 4.00
O=c1cc(NCc2cccnc2)c2cccnc2n1O [Example 162, 1-hydroxy-4-[(3-pyrindinylmethyl)amino]-1,8-naphthyridin-2 (1H-one)] | > 4.00
O=c1cc(Nc2ccc(-c3ccccc3)cc2)c2cccnc2n1O [Example 106, 4-(Biphenyl-4-ylamino)-1-hydroxy-1,8-naphthyridin-2(1H)-one] | > 4.00
O=c1c(-c2cccc(Cl)c2)c(O)c2cccnc2n1O [Example 33, 3-(3-Chlorophenyl)-1,4-dihydroxy-1,8-naphthyridin-2(1H)-one] | > 4.00
Nc1ccc(-c2cccc(Cc3cc(=O)n(O)c4ncccc34)c2)cc1 [Example 234, 4-[(4′-aminobiphenyl-3-yl)methyl]-1-hydroxy-1,8-naphthyridin-2(1H)-one] | > 4.00
O=c1cc(-c2ccc(-c3ccn[nH]3)cc2)c2cccnc2n1O [Example 188, 1-hydroxy-4-[4-(1H-pyrazol-5-yl)phenyl]-1,8-naphthyridin-2(1H)-one] | > 4.00
O=C(Cc1ccccc1)Nc1cc(=O)n(O)c2ncccc12 [Example 101, N-(1-Hydroxy-2-oxo-1,2-dihydro-1,8-naphthyridin-4-yl)-2-phenylacetamide] | > 4.00
O=c1c2ccccc2c2cccnc2n1O [Example 265, 5-Hydroxybenzo[c]-1,8-naphthyridin-6(5B)-one] | > 4.00
O=c1cc(NC2CCCc3ccccc32)c2cccnc2n1O (stereo not drawn) [Example 135, 1-hydroxy-4-(1,2,3,4-tetrahydronaphthalen-1-ylamino)-1,8-naphthyridin-2(1H)-one] | > 4.00
CCOC(=O)c1c(O)c2cc(C(=O)NCc3ccccc3)cnc2n(O)c1=O [Example 77, Ethyl 6-[(benzylamino)carbonyl]-1,4-dihydroxy-2-oxo-1,2-dihydro-1,8-naphthyridine-3-carboxylate] | > 4.00
CCCCc1c(O)c2cccnc2n(O)c1=O [Example 42, 3-Butyl-1,4-dihydroxy-1,8-naphthyridin-2(1H)-one] | > 4.00
O=C(c1cccc(-c2cc(=O)n(O)c3ncccc23)c1)N1CCOCC1 [Example 179, 1-hydroxy-4-[3-(morpholin-4-ylcarbonyl)phenyl]-1,8-naphthyridin-2(1H)-one] | > 4.00
CCOC(=O)c1c(O)c2cc(Oc3ccc(N)cc3)cnc2n(O)c1=O [Example 89, Ethyl 6-(4-aminophenoxy)-1,4-dihydroxy-2-oxo-1,2-dihydro-1,8-naphthyridine-3-carboxylate] | > 4.00
CS(=O)(=O)c1cccc(-c2cc(=O)n(O)c3ncccc23)c1 [Example 199, 1-hydroxy-4-[3-(methylsulfonyl)phenyl]-1,8-naphthyridin-2(1H)-one] | > 4.00
O=c1cc(-c2cccc(CN3CCN(C(c4ccccc4)c4ccc(Cl)cc4)CC3)c2)c2cccnc2n1O (stereo not drawn) [Example 207] | > 4.00
O=c1c(-c2cccc(F)c2)c(O)c2cccnc2n1O [Example 36, 3-(3-Fluorophenyl)-1,4-dihydroxy-1,8-naphthyridin-2(1H)-one] | > 4.00
CC(=O)Nc1cc(=O)n(O)c2ncccc12 [Example 100, N-(1-Hydroxy-2-oxo-1,2-dihydro-1,8-naphthyridin-4-yl)acetamide] | > 4.00
